Test results: PubChem BioAssay AID248 (DTP/NCI, 2004)
The list does not hold the whole screen: it is rich in T/C values a quarter to a half above the control, in often repeated tests (any T/C) and in doses without a T/C. Other doses and runs of a compound stand elsewhere. T/C is the treated group as % of the vehicle group. Some doses have a count of surviving animals in place of a T/C: the source holds a T/C of zero for them, seemingly a mark for toxic or unscored doses. Some survivor counts are full or nearly so, which does not show that the dose was tolerated: the source hardly ever lists a survival T/C far under the control, and the zero likely stands for such cases as well. Survivors were counted at the toxicity check, usually on the fifth day, unless a day is given; later deaths do not show. Schedules are NCI's codes, read here as Q, the interval in days (D) or hours (H), X, the number of doses. Some schedules carry Z or #; the key to these is not given. Some entries hold several experiments; the results are listed from low to high. Where survival is the endpoint, the PubChem record calls one and a half times the control and up active, and a quarter to a half above the control has no call in these data; cut-offs in other NCI protocols can differ. Some T/C values are followed by the survivors on the day toxicity was checked, most often the fifth; where none is given, no animal had died by that day.

Test system: L1210 leukemia ip in BDF1 mice, survival T/C
Test: NCI In Vivo Anticancer Drug Screen. Data for tumor model L1210 Leukemia (intraperitoneal) in B6D2F1 (BDF1) mice
Conditions: T/C endpoint: mean survival time, higher T/C = longer survival
[1] = dose: 25.0 mg/kg/injection, schedule: Q01DX009 (ip), vehicle: saline
[2] = dose: 400.0 mg/kg/injection, schedule: Q01DX009 (ip), vehicle: Klucel (hydroxypropylcellulose) (HPC)
[3] = dose: 200.0 mg/kg/injection, schedule: Q04DX002 (ip), vehicle: saline
[4] = dose: 400.0 mg/kg/injection, schedule: Q04DX002 (ip), vehicle: saline
[5] = dose: 300.0 mg/kg/injection, schedule: Q01DX001 (ip), vehicle: carboxymethylcellulose (CMC)
[6] = dose: 400.0 mg/kg/injection, schedule: Q01DX001 (ip), vehicle: saline
[7] = dose: 400.0 mg/kg/injection, schedule: Q01DX009 (ip), vehicle: saline with Tween-80
[8] = dose: 400.0 mg/kg/injection, schedule: Q04DX003 (ip), vehicle: saline
[9] = dose: 50.0 mg/kg/injection, schedule: Q01DX001 (ip), vehicle: saline
[10] = dose: 100.0 mg/kg/injection, schedule: Q01DX001 (ip), vehicle: saline
[11] = dose: 200.0 mg/kg/injection, schedule: Q01DX001 (ip), vehicle: saline

CCCN=C(N)c1ccc(NC(=O)c2ccc(C(=O)Nc3ccc(C(N)=NCCC)cc3)cc2)cc1
T/C (dose: 0.62 mg/kg/injection, schedule: Q01DX Z (ip), vehicle: carboxymethylcellulose (CMC)): 133 % of control | T/C (dose: 3.0 mg/kg/injection, schedule: Q01DX001 (ip), vehicle: other): 126 % of control | T/C (dose: 4.4 mg/kg/injection, schedule: Q01DX001 (ip), vehicle: carboxymethylcellulose (CMC)): 132 % of control | T/C (dose: 4.4 mg/kg/injection, schedule: Q01DX001 (ip), vehicle: other): 130 % of control | T/C (dose: 5.0 mg/kg/injection, schedule: Q01DX Z (ip), vehicle: carboxymethylcellulose (CMC)): 133 % of control [5 of 6 alive] | T/C (dose: 6.6 mg/kg/injection, schedule: Q01DX001 (ip), vehicle: carboxymethylcellulose (CMC)): 139 % of control | T/C (dose: 6.6 mg/kg/injection, schedule: Q01DX001 (ip), vehicle: other): 131 % of control | survivor count (dose: 21.0 mg/kg/injection, schedule: Q01DX Z (ip), vehicle: carboxymethylcellulose (CMC)): 6 of 6 | survivor count (dose: 42.0 mg/kg/injection, schedule: Q01DX Z (ip), vehicle: carboxymethylcellulose (CMC)): 0 of 6 | survivor count (dose: 84.0 mg/kg/injection, schedule: Q01DX Z (ip), vehicle: carboxymethylcellulose (CMC)): 0 of 6 | survivor count (dose: 168.0 mg/kg/injection, schedule: Q01DX Z (ip), vehicle: carboxymethylcellulose (CMC)): 0 of 6

CC1CC[N+]2(C)CCCC12 (stereo unspecified)
survivor count [1]: 0 of 3 | survivor count (dose: 50.0 mg/kg/injection, schedule: Q01DX009 (ip), vehicle: saline): 0 of 3 | survivor count (dose: 100.0 mg/kg/injection, schedule: Q01DX009 (ip), vehicle: saline): 0 of 3 | survivor count (dose: 200.0 mg/kg/injection, schedule: Q01DX009 (ip), vehicle: saline): 0 of 3

CNC(=S)Nc1c(C)cc(C)cc1C
survivor count (dose: 200.0 mg/kg/injection, schedule: Q04DX002 (ip), vehicle: saline with Tween-80): 6 of 6 | survivor count (dose: 400.0 mg/kg/injection, schedule: Q04DX002 (ip), vehicle: saline with Tween-80): 1 of 6 and 1 of 3

[N-]=[N+]=CC(=O)NCC(N)=O
T/C (dose: 250.0 mg/kg/injection, schedule: Q01DX009 (ip), vehicle: other): 129 % of control | T/C (dose: 333.0 mg/kg/injection, schedule: Q01DX Z (ip), vehicle: water): 131 % of control | T/C (dose: 500.0 mg/kg/injection, schedule: Q01DX009 (ip), vehicle: other): 126 % of control | T/C (dose: 500.0 mg/kg/injection, schedule: Q01DX Z (ip), vehicle: water): 145 % of control | survivor count (dose: 750.0 mg/kg/injection, schedule: Q01DX009 (ip), vehicle: other): 6 of 6

CCCCCCN(CCCCCC)C(C)=O
survivor count (dose: 400.0 mg/kg/injection, schedule: Q01DX001 (ip), vehicle: other): 1 of 6

CN(C)C(=O)Sc1c(Cl)cc(S(=O)(=O)F)cc1Cl
survivor count (dose: 100.0 mg/kg/injection, schedule: Q01DX009 (ip), vehicle: Klucel (hydroxypropylcellulose) (HPC)): 6 of 6 | survivor count [2]: 6 of 6

CC1C(N2CCCCC2)CS1(=O)=O (stereo unspecified)
survivor count [3]: 2 of 3 | survivor count [4]: 0 of 3

O=NN(CCCl)C(=O)Nc1cc(Cl)ccc1O
T/C (dose: 8.0 mg/kg/injection, schedule: Q01DX001 (ip), vehicle: carboxymethylcellulose (CMC)): 128 % of control | T/C (dose: 15.0 mg/kg/injection, schedule: Q01DX001 (ip), vehicle: carboxymethylcellulose (CMC)): 148 % of control | T/C (dose: 30.0 mg/kg/injection, schedule: Q01DX001 (ip), vehicle: carboxymethylcellulose (CMC)): 135 % of control | T/C (dose: 60.0 mg/kg/injection, schedule: Q01DX001 (ip), vehicle: carboxymethylcellulose (CMC)): 143 % of control | T/C (dose: 75.0 mg/kg/injection, schedule: Q01DX001 (ip), vehicle: carboxymethylcellulose (CMC)): 149 % of control | T/C (dose: 150.0 mg/kg/injection, schedule: Q01DX001 (ip), vehicle: carboxymethylcellulose (CMC)): 141 % of control | survivor count (dose: 150.0 mg/kg/injection, schedule: Q01DX009 (ip), vehicle: carboxymethylcellulose (CMC)): 4 of 6 | survivor count [5]: 1 of 6

O=[N+]([O-])c1cccc([I+]c2ccccc2)c1
survivor count [6]: 0 of 4

Ic1cccc(Oc2ccccc2)c1
survivor count [7]: 3 of 6

CC(=O)C(C(C)=O)C1C=CC=CC=C1
survivor count [8]: 3 of 6

Nc1nc(NCCCc2ccccc2)c(N)c(=O)[nH]1
survivor count (dose: 200.0 mg/kg/injection, schedule: Q01DX009 (ip), vehicle: saline with Tween-80): 2 of 6 | survivor count [7]: 0 of 6

O=C1NC(=O)/C(=C\c2ccc(OCc3ccccc3)c(OCc3ccccc3)c2)N1
survivor count (dose: 200.0 mg/kg/injection, schedule: Q01DX001 (ip), vehicle: saline with Tween-80): 5 of 6

O=[N+]([O-])c1cccn2ncnc12
survivor count (dose: 100.0 mg/kg/injection, schedule: Q01DX001 (ip), vehicle: acetone): 0 of 6 | survivor count (dose: 200.0 mg/kg/injection, schedule: Q01DX001 (ip), vehicle: acetone): 0 of 6 | survivor count (dose: 400.0 mg/kg/injection, schedule: Q01DX001 (ip), vehicle: acetone): 0 of 6

C[N+](C)(C)CCCNC(=O)Nc1ccc(Cl)cc1
survivor count (dose: 100.0 mg/kg/injection, schedule: Q04DX002 (ip), vehicle: saline): 0 of 3 | survivor count [3]: 0 of 3 | survivor count [4]: 0 of 3

COC1OC(C)C(O)C(O)[CH]1[Hg][O]C(C)=O (stereo unspecified)
survivor count (dose: 12.5 mg/kg/injection, schedule: Q01DX009 (ip), vehicle: saline): 2 of 6 | survivor count (dose: 20.0 mg/kg/injection, schedule: Q01DX001 (ip), vehicle: saline): 0 of 4 | survivor count [1]: 0 of 6 | survivor count (dose: 25.0 mg/kg/injection, schedule: Q04DX003 (ip), vehicle: saline): 0 of 6 | survivor count (dose: 40.0 mg/kg/injection, schedule: Q01DX001 (ip), vehicle: saline): 0 of 4 | survivor count [9]: 0 of 4 | survivor count (dose: 50.0 mg/kg/injection, schedule: Q04DX003 (ip), vehicle: saline): 0 of 6 | survivor count (dose: 80.0 mg/kg/injection, schedule: Q01DX001 (ip), vehicle: saline): 0 of 4 | survivor count [10]: 0 of 4 | survivor count (dose: 100.0 mg/kg/injection, schedule: Q04DX003 (ip), vehicle: saline): 0 of 6 | survivor count [11]: 0 of 4 | survivor count (dose: 200.0 mg/kg/injection, schedule: Q04DX003 (ip), vehicle: saline): 0 of 6 | survivor count [6]: 0 of 4 | survivor count [8]: 0 of 6

Oc1ccc(CN2CCCCC2)c2cccnc12
survivor count [5]: 3 of 6

CC(C)c1ccc(C(c2c(O)c3ccccc3oc2=O)c2c(O)c3ccccc3oc2=O)cc1
survivor count [2]: 6 of 6

COc1ccc(CC(N)C(=O)OCc2ccccc2)cc1N(CCCl)CCCl (stereo unspecified)
T/C (dose: 0.15 mg/kg/injection, schedule: Q01DX009 (ip), vehicle: saline): 127 % of control | T/C (dose: 0.3 mg/kg/injection, schedule: Q01DX009 (ip), vehicle: saline): 129 % of control | T/C (dose: 0.7 mg/kg/injection, schedule: Q01DX009 (ip), vehicle: saline): 126 % of control | T/C (dose: 0.75 mg/kg/injection, schedule: Q01DX009 (ip), vehicle: saline): 137 % of control | T/C (dose: 1.5 mg/kg/injection, schedule: Q01DX009 (ip), vehicle: saline): 131 % of control | T/C (dose: 3.0 mg/kg/injection, schedule: Q01DX001 (ip), vehicle: saline): 125 % of control | T/C (dose: 3.0 mg/kg/injection, schedule: Q01DX009 (ip), vehicle: saline): 137 % of control | T/C (dose: 6.0 mg/kg/injection, schedule: Q01DX001 (ip), vehicle: saline): 136 % of control | survivor count (dose: 25.0 mg/kg/injection, schedule: Q01DX001 (ip), vehicle: saline): 6 of 6 | survivor count [9]: 0 of 6 | survivor count [10]: 0 of 6 | survivor count [11]: 0 of 6 | survivor count [6]: 0 of 6
